This passage reports binding results from paper PMC5190019.

Protein sequences, listed by entry. Tags and fused reporters are not part of them. Residues count along the entry.
UniProt P46531, residues 19-2555: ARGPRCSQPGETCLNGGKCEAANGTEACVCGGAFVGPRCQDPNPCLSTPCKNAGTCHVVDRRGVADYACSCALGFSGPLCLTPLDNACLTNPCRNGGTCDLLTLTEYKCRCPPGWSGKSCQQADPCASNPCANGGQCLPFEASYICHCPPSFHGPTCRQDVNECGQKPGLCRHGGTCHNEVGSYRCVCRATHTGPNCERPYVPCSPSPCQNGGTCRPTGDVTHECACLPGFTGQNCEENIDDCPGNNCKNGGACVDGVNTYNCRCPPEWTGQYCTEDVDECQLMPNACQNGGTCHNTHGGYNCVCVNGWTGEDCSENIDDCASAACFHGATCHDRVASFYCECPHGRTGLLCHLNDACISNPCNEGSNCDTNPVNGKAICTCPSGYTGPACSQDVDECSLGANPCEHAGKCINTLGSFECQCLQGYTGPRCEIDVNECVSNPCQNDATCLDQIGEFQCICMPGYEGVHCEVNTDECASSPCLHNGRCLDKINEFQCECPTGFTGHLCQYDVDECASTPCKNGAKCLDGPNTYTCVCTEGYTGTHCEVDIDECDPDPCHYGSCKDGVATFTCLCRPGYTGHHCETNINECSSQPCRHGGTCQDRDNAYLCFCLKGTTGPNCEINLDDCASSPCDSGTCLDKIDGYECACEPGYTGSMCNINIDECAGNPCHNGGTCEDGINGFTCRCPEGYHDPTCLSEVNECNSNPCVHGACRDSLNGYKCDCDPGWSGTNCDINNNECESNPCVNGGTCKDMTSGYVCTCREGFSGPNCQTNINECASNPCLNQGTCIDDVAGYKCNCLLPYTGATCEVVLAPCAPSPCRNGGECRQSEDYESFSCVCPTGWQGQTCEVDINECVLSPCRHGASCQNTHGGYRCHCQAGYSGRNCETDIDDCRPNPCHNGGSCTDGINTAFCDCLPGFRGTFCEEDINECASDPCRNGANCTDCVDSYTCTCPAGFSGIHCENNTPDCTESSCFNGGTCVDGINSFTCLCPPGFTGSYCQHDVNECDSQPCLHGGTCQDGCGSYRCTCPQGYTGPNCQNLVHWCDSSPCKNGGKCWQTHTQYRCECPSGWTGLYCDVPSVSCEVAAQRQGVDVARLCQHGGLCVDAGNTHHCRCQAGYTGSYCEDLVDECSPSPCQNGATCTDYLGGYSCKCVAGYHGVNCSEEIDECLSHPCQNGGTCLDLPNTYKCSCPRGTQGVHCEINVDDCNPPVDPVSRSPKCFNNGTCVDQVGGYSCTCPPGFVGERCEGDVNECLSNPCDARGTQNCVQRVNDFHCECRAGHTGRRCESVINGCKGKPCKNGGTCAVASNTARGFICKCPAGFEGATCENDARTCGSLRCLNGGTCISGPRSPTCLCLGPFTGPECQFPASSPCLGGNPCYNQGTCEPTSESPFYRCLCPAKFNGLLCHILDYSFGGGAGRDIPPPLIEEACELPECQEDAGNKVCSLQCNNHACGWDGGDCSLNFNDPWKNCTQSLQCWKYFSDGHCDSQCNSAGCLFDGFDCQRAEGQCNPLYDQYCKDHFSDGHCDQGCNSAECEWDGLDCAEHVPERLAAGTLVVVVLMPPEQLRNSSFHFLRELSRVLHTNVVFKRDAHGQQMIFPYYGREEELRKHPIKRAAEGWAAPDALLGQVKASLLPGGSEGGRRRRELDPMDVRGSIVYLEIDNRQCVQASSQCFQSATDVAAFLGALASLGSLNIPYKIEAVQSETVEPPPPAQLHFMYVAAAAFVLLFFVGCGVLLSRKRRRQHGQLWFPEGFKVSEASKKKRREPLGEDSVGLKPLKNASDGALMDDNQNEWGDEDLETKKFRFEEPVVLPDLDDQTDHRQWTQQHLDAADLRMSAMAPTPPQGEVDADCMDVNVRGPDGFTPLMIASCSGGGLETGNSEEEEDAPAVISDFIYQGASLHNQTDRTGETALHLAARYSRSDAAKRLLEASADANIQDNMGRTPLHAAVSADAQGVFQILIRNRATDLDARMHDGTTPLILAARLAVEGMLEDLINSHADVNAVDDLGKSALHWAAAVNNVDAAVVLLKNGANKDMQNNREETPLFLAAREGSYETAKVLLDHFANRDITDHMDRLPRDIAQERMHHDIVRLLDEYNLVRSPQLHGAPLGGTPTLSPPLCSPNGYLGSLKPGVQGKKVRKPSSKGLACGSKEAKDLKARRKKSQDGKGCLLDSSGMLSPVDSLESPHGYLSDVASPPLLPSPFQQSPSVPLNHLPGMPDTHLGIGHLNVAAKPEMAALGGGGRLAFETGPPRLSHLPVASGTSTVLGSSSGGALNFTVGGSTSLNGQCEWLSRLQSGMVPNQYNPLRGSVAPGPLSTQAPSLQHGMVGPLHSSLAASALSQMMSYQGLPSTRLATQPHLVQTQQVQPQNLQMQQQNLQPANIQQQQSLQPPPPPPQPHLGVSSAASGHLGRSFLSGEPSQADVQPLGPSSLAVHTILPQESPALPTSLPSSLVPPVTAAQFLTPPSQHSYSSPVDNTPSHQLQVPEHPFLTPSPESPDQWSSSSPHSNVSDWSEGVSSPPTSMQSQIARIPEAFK
UniProt P11309: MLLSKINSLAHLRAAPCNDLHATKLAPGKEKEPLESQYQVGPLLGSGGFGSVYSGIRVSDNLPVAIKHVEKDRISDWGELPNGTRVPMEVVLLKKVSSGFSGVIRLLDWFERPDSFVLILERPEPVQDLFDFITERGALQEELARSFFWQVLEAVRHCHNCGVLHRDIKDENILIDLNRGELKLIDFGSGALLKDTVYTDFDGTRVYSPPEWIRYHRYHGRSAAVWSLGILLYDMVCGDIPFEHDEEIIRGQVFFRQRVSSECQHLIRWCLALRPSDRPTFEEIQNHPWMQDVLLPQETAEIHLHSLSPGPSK

No constants are given. Whether binding was seen depends on the method and setting. Binding seen in cells or lysates may run through a third protein. Some results given as binding are weak or reduced against the parent protein; the word gives no strength.

This assay deals with endogenous Notch1 (human (endogenous in MCF-7)) (UniProt P46531). Put plainly: proximity ligation; in situ PLA (Duolink) on methanol/acetone-fixed MCF-7 cells, endogenous proteins, primary antibodies to Pim1, Notch1 or CoxII.

With “endogenous Pim1 (from UniProt P11309 1-313) (enzyme)”, the binding result is on record as “binds”.
